PubChem BioAssay AID1259424 – University of Nebraska Medical Center – 2018

Screen: 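Rank knockdowns across the genome by resemblance to the KSR1 depletion profile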 (primary screen)
Cell system: human HCT116 colon cancer cells
Knock-down reagent: siRNA pool against human genes, 50 nM
Measured: 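Six signature mRNAs by branched-DNA multiplex assay, scaled to two housekeeping genes and non-targeting median, log2; matched to mean KSR1 knockdown profile by Pearson correlation and euclidean distance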
Reading the numbers: mean correlation with KSR1 profile and KSR1 correlation: higher = expression change more like KSR1 knockdown; mean distance from KSR1 profile: higher = expression change less like KSR1 knockdown
Here is an unselected part of about 14,000 reagents. 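Higher correlation or smaller distance means closer resemblance to KSR1 loss; control wells, including KSR1 knockdowns, recur on many plates.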 Reagent sequences are not shown. Not given: the time to read-out.

no.	target	mean correlation with KSR1 profile	mean distance from KSR1 profile	KSR1 correlation, replicate 1	KSR1 correlation, replicate 2	KSR1 correlation, replicate 3
1	GAGE12I (GeneID 26748)	0.0634	2.71	0.00739	-0.238	-0.000703
2	VN1R1 (GeneID 57191)	0.738	1.08	0.736	0.755	0.808
3	OR5P2 (GeneID 120065)	0.687	1.75	0.681	0.717	0.649
4	VPS35 (GeneID 55737)	-0.167	3.01	-0.0819	0.365	-0.623
5	SPIN1 (GeneID 10927)	0.507	3.44	0.582	0.44	0.577
6	ZFYVE19 (GeneID 84936)	0.609	1.82	0.511	0.606	0.521
7	YIF1A (GeneID 10897)	0.0547	2.03	0.0669	0.186	0.00664
8	SLIT2 (GeneID 9353)	-0.263	2.34	-0.108	-0.258	-0.435
9	BPNT2 (GeneID 54928)	-0.279	2.4	-0.398	0.0128	-0.341
10	AGT (GeneID 183)	-0.649	3.84	-0.593	-0.693	-0.704
11	PIK3R5 (GeneID 23533)	-0.398	2.54	-0.594	-0.441	-0.293
12	IL5RA (GeneID 3568)	-0.495	1.3	-0.516	-0.396	-0.397
13	GUCA1C (GeneID 9626)	-0.0893	2.12	-0.0561	-0.255	-0.255
14	ZNF512B (GeneID 57473)	0.42	3.74	0.223	0.482	0.507
15	FUT3 (GeneID 2525)	0.55	1.31	0.704	0.412	0.352
16	QNG1 (GeneID 84267)	0.564	1.87	0.538	0.529	0.413
17	MIIP (GeneID 60672)	0.275	1.57	-0.0139	0.269	0.282
18	WDR24 (GeneID 84219)	0.802	1.45	0.723	0.801	0.569
19	AGRP (GeneID 181)	-0.751	4.21	-0.722	-0.773	-0.82
20	PRPSAP1 (GeneID 5635)	0.0185	1.92	0.0666	0.438	-0.319
21	POM121L9P (GeneID 29774)	-0.092	2.4	-0.327	-0.369	-0.297
22	FBXW7 (GeneID 55294)	0.113	1.8	0.257	0.097	-0.38
23	TM4SF5 (GeneID 9032)	0.42	1.34	0.361	0.56	0.273
24	GAL (GeneID 51083)	-0.027	2.53	-0.122	0.0757	0.248
25	LIMCH1 (GeneID 22998)	-0.523	3.17	-0.431	-0.561	-0.382
26	ZNF213 (GeneID 7760)	-0.391	2.28	-0.423	-0.352	-0.399
27	NPIPA1 (GeneID 9284)	0.808	0.478	0.378	0.665	0.54
28	METRN (GeneID 79006)	0.446	2.51	0.331	0.0724	0.101
29	SOCS6 (GeneID 9306)	-0.0159	1.13	0.1	0.178	-0.0423
30	GADD45GIP1 (GeneID 90480)	-0.379	2.03	-0.556	-0.59	-0.214
31	MED21 (GeneID 9412)	-0.508	2.88	-0.515	-0.41	-0.562
32	RNF43 (GeneID 54894)	-0.428	2.68	-0.174	-0.303	-0.418
33	MAMLD1 (GeneID 10046)	-0.355	1.79	-0.398	-0.535	0.162
34	EMD (GeneID 2010)	0.211	2.19	0.109	0.0049	0.191
35	ZBTB32 (GeneID 27033)	0.0144	2.1	0.0796	-0.00221	0.496
36	CLCC1 (GeneID 23155)	0.265	1.02	0.188	0.105	0.427
37	CUTC (GeneID 51076)	-0.0669	1.96	-0.207	-0.18	0.388
38	MSR1 (GeneID 4481)	0.000578	1.48	-0.209	0.0971	0.167
39	NRL (GeneID 4901)	0.417	2.14	0.413	0.346	0.492
40	ITGB1 (GeneID 3688)	0.685	1.73	-0.104	0.68	0.731
41	ARHGEF18 (GeneID 23370)	-0.156	1.4	-0.0897	-0.419	-0.332
42	OPHN1 (GeneID 4983)	-0.105	1.71	-0.0531	-0.0991	-0.0636
43	SHC3 (GeneID 53358)	-0.394	2.9	-0.288	-0.707	-0.198
44	SLC2A1 (GeneID 6513)	-0.543	1.6	-0.499	-0.616	-0.604
45	GUCA2A (GeneID 2980)	0.233	2.38	0.406	-0.185	0.196
46	COG2 (GeneID 22796)	0.376	2.01	0.457	0.258	0.407
47	CLEC7A (GeneID 64581)	-0.209	1.84	-0.0368	-0.474	-0.218
48	GREM2 (GeneID 64388)	0.462	13.4	-0.858	0.464	0.366
49	ODAM (GeneID 54959)	-0.694	2.75	-0.58	-0.618	-0.628
50	RPS27 (GeneID 6232)	0.119	2.28	0.126	-0.00586	0.21
